# Inconclusive results, whose numbers are uncertain, are shown with a selection of clear calls. For some of these results: Where the call is inconclusive, the potency comes from a doubtful curve fit. The source made the active and inactive calls. Calls follow the shape of the dose curve; as a rule, active = well fitted curve in the direction sought with a large enough effect; inconclusive = small, poorly fitted or top-dose-only effect, or another doubt; inactive = no such curve, though single readings can be large; an effect the other way counts as inactive or inconclusive.
# Experiments:
# [1] = Quantitative High-Throughput drug screen in 47 multiple myeloma cell lines against the NCATS MIPE library collection: VP6_DJ cell viability assay (AID 1919867); also: nearly all actives have a fitted effect of over 40% in size; also: potency is read from the fitted curve at half-maximal effect
# Method in brief: (§1)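 MIPE 4.0 approved/investigational drugs; 500 cells/well; 48 h 37 °C humidified 5% CO2; CTG luminescence readout; DMSO = 100%, media = 0% viability.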
# [2] = Quantitative High-Throughput drug screen in 47 multiple myeloma cell lines against the NCATS MIPE library collection: UTMC2_PLB cell viability assay (AID 1919868); conditions: CellTiter-Glo ATP luminescence, 48 h; series mostly up to 45.8 µM; also: nearly all actives have a fitted effect of over 55% in size; also: potency is read from the fitted curve at half-maximal effect
# Method in brief: as §1
# [3] = Quantitative High-Throughput drug screen in 47 multiple myeloma cell lines against the NCATS MIPE library collection: PCM6_Riken cell viability assay (AID 1919870); also: nearly all actives have a fitted effect of over 30% in size; also: potency is read from the fitted curve at half-maximal effect
# Method in brief: as §1
# [4] = Quantitative High-Throughput drug screen in 47 multiple myeloma cell lines against the NCATS MIPE library collection: RPMI8226_ATCC cell viability assay (AID 1919871); conditions: RPMI8226 myeloma viability, CellTiter-Glo ATP luminescence, 48 h; viability (% of control): at 45.8 µM (top of the series); also: nearly all actives have a fitted effect of over 30% in size; also: potency is read from the fitted curve at half-maximal effect
# Method in brief: as §1
# [5] = Quantitative High-Throughput drug screen in 47 multiple myeloma cell lines against the NCATS MIPE library collection: OPM2_DSMZ cell viability assay (AID 1919872); also: nearly all actives have a fitted effect of over 30% in size; also: potency is read from the fitted curve at half-maximal effect
# Method in brief: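 Myeloma cells (500 per well) were exposed to MIPE 4.0 compounds by pin transfer and incubated 48 hours at 37C, 5% CO2. Viability was read as ATP by CellTiter-Glo luminescence, normalised to DMSO (100%) and media-only (0%) wells.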
# [6] = Quantitative High-Throughput drug screen in 47 multiple myeloma cell lines against the NCATS MIPE library collection: KMS11_JCRBsus cell viability assay (AID 1919873); also: nearly all actives have a fitted effect of over 50% in size; also: potency is read from the fitted curve at half-maximal effect
# Method in brief: as §1
# [7] = Quantitative High-Throughput drug screen in 47 multiple myeloma cell lines against the NCATS MIPE library collection: KMS28BM_JCRB cell viability assay (AID 1919874); conditions: CellTiter-Glo ATP, 48 h; series mostly up to 45.8 µM; also: potency is read from the fitted curve at half-maximal effect; nearly all actives have a fitted effect of over 35% in size
# Method in brief: as §1
# [8] = Quantitative High-Throughput drug screen in 47 multiple myeloma cell lines against the NCATS MIPE library collection: PE2_PLB cell viability assay (AID 1919869); conditions: PE2_PLB myeloma cells viability, ATP luminescence, 48 h; viability (% of control): at 45.8 µM (top of the series); also: potency is read from the fitted curve at half-maximal effect; nearly all actives have a fitted effect of over 35% in size
# Method in brief: as §1
# [9] = tested on: 7G8; experiment: qHTS profiling for inhibitors of Plasmodium falciparum proliferation (AID 504749); also: nearly all actives have a fitted effect of over 60% in size; conditions: P. falciparum in erythrocytes, SYBR Green DNA, 72 h; series mostly up to 28.7 µM
# Method in brief: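 Parasite proliferation within erythrocytes, 72 h exposure. Endpoint: SYBR Green I fluorescence after overnight lysis at room temperature. Controls: 0.29 uM artemisinin, DMSO.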
Compound,Potency [1],Potency [2],Potency [3],Potency [4],Potency [5],Potency [6],Potency [7],Potency [8],Potency [9]
CCNC(=O)[C@H]1O[C@@H](n2cnc3c(N)nc(NCCc4ccc(CCC(=O)O)cc4)nc32)[C@H](O)[C@H]1O,"inconclusive: 1.48 µM [cytotoxic, full curve, poor fit]","inconclusive: 0.0019 µM [cytotoxic, full curve, poor fit]","inconclusive: 0.0012 µM [rising, full curve, poor fit]",inactive,"inconclusive: 16.6 µM [cytotoxic, partial curve, poor fit]",inactive,"inconclusive: 16.6 µM [cytotoxic, partial curve, poor fit]",–,–
O=C(NCCS(=O)(=O)c1ccc(C(F)(F)F)cn1)c1ccc(Cl)cc1,"inconclusive: 0.003 µM [rising, full curve, poor fit]",inactive,inactive,"inconclusive: 33.2 µM [cytotoxic, single point]",inactive,inactive,–,–,–
CS(=O)(=O)Nc1ccc([N+](=O)[O-])cc1Oc1ccccc1,inactive,"inconclusive: 5.26 µM [cytotoxic, partial curve, poor fit]",–,–,"inconclusive: 10.5 µM [cytotoxic, partial curve, poor fit]","inconclusive: 20.9 µM [cytotoxic, partial curve, poor fit]",–,"inconclusive: 18.7 µM [cytotoxic, partial curve, poor fit]",inactive

# From PubChem BioAssay (NCATS)
